In PubChem BioAssay AID743266 (National Center for Advancing Translational Sciences (NCATS), 2014):
Hit rate of the full screen: of about 410,000 compounds, about 310 (0.076%) were called active. Inconclusive results, whose numbers are uncertain, are shown with a selection of clear calls. Calls come from the whole dose curve; as a rule, active = well fitted activation curve with a large enough effect; inconclusive = small, poorly fitted or top-dose-only effect, or another doubt; inactive = no such curve, though single readings can be large or run the other way. Where the call is inconclusive, the potency comes from a doubtful curve fit.

Sequences of proteins named here, by UniProt entry; tags and fusion partners are left off. A change or cut given only in a name is not applied to a line headed by its entry.
UniProt Q03431: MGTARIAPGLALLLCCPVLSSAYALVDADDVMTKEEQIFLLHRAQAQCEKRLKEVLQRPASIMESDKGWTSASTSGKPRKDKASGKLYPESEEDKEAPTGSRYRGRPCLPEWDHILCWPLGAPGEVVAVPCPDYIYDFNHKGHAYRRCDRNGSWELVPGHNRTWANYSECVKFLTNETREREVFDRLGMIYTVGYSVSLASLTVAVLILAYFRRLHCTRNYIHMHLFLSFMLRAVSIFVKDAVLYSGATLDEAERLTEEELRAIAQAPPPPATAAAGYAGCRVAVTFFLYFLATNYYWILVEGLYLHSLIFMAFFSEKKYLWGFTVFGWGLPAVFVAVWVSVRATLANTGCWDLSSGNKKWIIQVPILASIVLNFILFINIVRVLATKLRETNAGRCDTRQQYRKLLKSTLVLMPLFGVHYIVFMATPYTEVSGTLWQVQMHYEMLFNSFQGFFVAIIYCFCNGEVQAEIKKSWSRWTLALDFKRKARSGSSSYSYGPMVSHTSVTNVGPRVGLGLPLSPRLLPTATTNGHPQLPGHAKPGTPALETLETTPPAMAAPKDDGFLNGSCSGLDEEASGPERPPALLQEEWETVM

Biological target: Parathyroid hormone/parathyroid hormone-related peptide receptor (Homo sapiens) (UniProt Q03431)
Experiment: qHTS for PTHR1 Agonists: Primary Screen; note: nearly all actives have a fitted effect of over 55% in size
Conditions: HEK293 GP2 PTHR1 cells, GloSensor cAMP luminescence, 1 h; activation: at 115 µM (top of the series) unless noted; series mostly up to 115 µM
Description: The goal of the proposed studies is to discover new compounds that act as potent agonists on the parathyroid hormone receptor type-1 (PTHR1). The PTHR1 plays critical roles in maintaining blood calcium and phosphate levels, as well as in controlling bone remodeling. PTHR1 agonists could thus be useful for treating diseases such as hypoparathyroidism and osteoporosis. In the former disease, an agonist drug would help maintain normal blood calcium and phosphate levels under conditions of parathyroid hormone deficiency. In the latter disease, an agonist drug would stimulate new bone formation and thus reduce the risk of fracture, under conditions of bone fragility, as occurs in aging.
To that end, we performed a quantitative high-throughput screening (qHTS) of the Molecular Libraries Probe Centers Network (MLPCN) compound libraries at the NIH Chemical Genomics Center (NCGC) for the parathyroid hormone receptor type-1 (PTHR1) using a unique HEK-293-derived cell line (GP2) that expresses the PTHR1 and a glosensor cAMP reporter construct.
NIH Molecular Libraries Probe Production Centers Network [MLPCN]
NIH Chemical Genomics Center [NCGC]
Assay Submitter (PI): Thomas Gardella, Massachusetts General Hospital
4 microL are dispensed into a 1536-well micro plate to yield 3,000 cells/well. The plates are then incubated overnight, after which 4 microL of 0.5 mM of BIoTium Luciferin plus 0.5 mM IBMX are added. They are then incubated at 37 degree for one hour before 23 nL of compounds are added through pinning and then incubated at 37 degree again for another hour. After the plates are kept at room temperature for 15 min before they are read on the ViewLux to measure luminescence.
Potency is the fitted concentration of half-maximal effect.

SMILES | Potency | activation
COc1cccc(OCC(O)CN2CCOCC2)c1 (stereo unspecified) | inconclusive: 15.8 µM [activator, partial curve, poor fit] | –
O=C1NC(NS(=O)(=O)c2ccc(Cl)cc2)(C(F)(F)F)C(=O)N1CCc1ccccc1 (stereo unspecified) | inconclusive: 141 µM [activator, single point] | –
Cc1cc(C)c(S(=O)(=O)Nc2ccc(-c3ccc(N4CCCCC4)nn3)cc2)c(C)c1 | inactive | –
CC(C)[C@H](NC(=O)N1CCn2c1nc1ccccc12)C(=O)NCC1CCCO1 (stereo partly specified) | inactive | –
Cc1ccc(-c2csc(N3CCN(c4cc5c(cc4Cl)nc(-c4ccncc4)n5CCN4CCCCC4)CC3)n2)cc1 | inconclusive: 70.8 µM [activator, partial curve, poor fit] | –
CCn1c(CN2CCCCC2)nc2cc(NC(=O)COc3cc(C)ccc3C(C)C)ccc21 | inactive | –
O=C(C1CCCCC1)N(Cc1cccnc1)c1nc2c(F)cccc2s1 | – | inconclusive: -47.1% [activator]
COc1cc(C(=O)NC(=S)Nc2ccccc2N2CCCC2)cc(OC)c1OC | – | inconclusive: -31.3% [activator]
Nc1ccc(N(CCO)CCO)cc1 | inactive | –
O=C(CCc1nc2ccccc2c(=O)[nH]1)Nc1ccc(F)c([N+](=O)[O-])c1 | – | inconclusive: 43.9% [activator]
Cc1ccccc1OCCC(=O)OCC(=O)Nc1ccc(C(N)=O)cc1 | inconclusive: 15.8 µM [activator, partial curve, poor fit] | –
CCc1ccccc1NC(=O)CN(C)C(=O)c1cc(C2CC2)nn1-c1ccccc1 | inconclusive: 56.2 µM [activator, single point] | –
N#CCC(=O)N/N=C/c1cc([N+](=O)[O-])ccc1N1CCOCC1 | inconclusive: 112 µM [activator, single point] | –
C=C(C)C(=O)Nc1ccc(OC(F)(F)C(F)F)c(NC(=O)C(=C)C)c1 | – | inconclusive: 31.9% [activator] [at 57.5 µM]
CCc1cc(=O)n2c([nH]c3ccccc32)c1C#N | inactive | –
Cc1onc(-c2c(F)cccc2Cl)c1C(=O)OCC(=O)Nc1cccc(S(=O)(=O)N(C)C)c1 | inactive | –
COc1ccc(-n2nc(C(=O)NCC(=O)Nc3cc(OC)c(OC)c(OC)c3)c3ccccc3c2=O)cc1 | inactive | –
O=C(Nc1ccccc1N1CCOCC1)c1ccc([N+](=O)[O-])s1 | inactive | –
NC1CCN(c2c(F)cc3c(=O)c(C(=O)O)cn(C4CC4)c3c2Cl)C1 (stereo unspecified) | inconclusive: 126 µM [activator, single point] | –
CCOC(=O)c1cc(S(=O)(=O)NCc2ccc(F)cc2)[nH]n1 | inconclusive: 100 µM [activator, partial curve, poor fit] | –
CSCCC(NC(=O)c1ccco1)C(=O)NNC(=O)c1n[nH]c(=O)c2ccccc12 (stereo unspecified) | inconclusive: 112 µM [activator, single point] | –
Cc1c(C)c2cccnc2c2ncccc12 | inconclusive: 28.2 µM [activator, partial curve, poor fit] | –
Cc1ccccc1OCC(=O)Nc1ccc([N+](=O)[O-])cc1 | – | inconclusive: 50.4% [activator]
Cn1ccnc1SCC(=O)c1ccc(Cl)cc1 | inactive | –

Some values from above.
COc1ccc(-n2nc(C(=O)NCC(=O)Nc3cc(OC)c(OC)c(OC)c3)c3ccccc3c2=O)cc1 – Potency: inactive
O=C(C1CCCCC1)N(Cc1cccnc1)c1nc2c(F)cccc2s1 – activation: inconclusive: -47.1% [activator]

(listing goes on)

SMILES | Potency | activation
COCCCNC(=O)CSc1nc(-c2ccc(OC)cc2)[nH]c1-c1ccc(OC)cc1 | inconclusive: 89.1 µM [activator, partial curve, poor fit] | –
O=C(CCC(=O)Nc1nnc(C2CCCCC2)s1)Nc1ccc(F)cc1 | inactive | –
C=CCc1ccc(OCCCCN2CC(C)CC(C)C2)c(OC)c1 (stereo unspecified) | inconclusive: 282 µM [activator, partial curve, poor fit] | –
c1ccc2c(c1)CCCn1nnnc1-2 | inconclusive: 35.5 µM [activator, single point] | –
O=C(Nc1ccc(-c2cn3cccnc3n2)cc1)c1ccccc1F | inactive | –
Cc1cccc(CSc2nc3ccncc3n2Cc2ccc(C(=O)O)cc2)c1 | inconclusive: 50.1 µM [activator, partial curve, poor fit] | –
CCOc1cc(C(=O)NCC(=O)N2CCC3(CC2)NCCc2[nH]cnc23)cc(OCC)c1OCC | inactive | –
O=C(Nc1ccc(F)cc1F)c1cc2ccc3cccnc3c2[nH]1 | inactive | –
O=C(O)CCC(=O)N1CCc2cc(S(=O)(=O)NC3CCCC3)ccc21 | inconclusive: 39.8 µM [activator, single point] | –
O=C(CCCOc1ccccc1)Nc1nccs1 | inconclusive: 5.01 µM [activator, single point] | –
CC(C)c1ccc(Nc2cc(C(=O)NCCCN(C)Cc3ccccc3)c3ccccc3n2)cc1 | inconclusive: 50.1 µM [activator, partial curve, poor fit] | –
Cc1cccc(NC(=O)CNC(=O)[C@H]2O[C@@H](n3ccc(N)nc3=O)[C@H](O)[C@@H]2O)c1C | inactive | –
O=C(NCCc1ccccc1)C1CCN(S(=O)(=O)c2cccc3nsnc23)CC1 | inactive | –
CSCC[C@H](NC(=O)OC(C)(C)C)C(=O)NCC1CCC(C(=O)O)CC1 (stereo partly specified) | inconclusive: 8.91 µM [activator, partial curve, poor fit] | –
COC(=O)CC/C(=N/Nc1ccc(Cl)c(Cl)c1)C(=O)OC | inactive | –
CC(C)Sc1ncc(Cl)c(C(=O)Nc2nc3ccc(S(C)(=O)=O)cc3s2)n1 | inactive | –
COc1ccc(NC(=O)CCc2nc3cccnc3n2-c2ccccc2)c(OC)c1 | – | inconclusive: -95% [activator]
CCN(CC)c1ccc(C(=O)Nc2cccc(F)c2)cc1 | inactive | –
Cc1onc(-c2ccccc2)c1C(=O)N1CCN(c2ccccn2)CC1 | inconclusive: 79.4 µM [activator, single point] | –
CCn1c(=S)sc2c(=O)n(CC(=O)Nc3cccc(Cl)c3)c(C)nc21 | inactive | –
O=C(OCc1nnc(-c2ccccc2)o1)c1ccc([N+](=O)[O-])s1 | inconclusive: 28.2 µM [activator, partial curve, poor fit] | –
CC(C)CC(=O)Nc1nnc(S(=O)(=O)N(C)c2ccc(Cl)cc2)s1 | – | inconclusive: 29.6% [activator]
O=C(O)c1ccc(S(=O)(=O)N(Cc2cccs2)CC2CCCO2)cc1 (stereo unspecified) | inconclusive: 50.1 µM [activator, partial curve, poor fit] | –
CC(=O)c1ccccc1OC(=O)COc1ccc([N+](=O)[O-])cc1 | inconclusive: 79.4 µM [activator, partial curve, poor fit] | –

SMILES | Potency | activation
CCc1ccccc1NC(=O)/C(=C/c1ccco1)c1ccccc1 | inactive | –
COc1cccc(N2CC(NC(=O)C3CCCCC3)CC2=O)c1 (stereo unspecified) | inactive | –
CCOC(=O)C1(CC)NC(c2ccc(OC)c(OC)c2)C2C(=O)N(c3cccc(C(C)=O)c3)C(=O)C21 (stereo unspecified) | inactive | –
CCOc1cc2[nH]c(=S)n(CCN3CCCCC3CC)c(=O)c2cc1OCC (stereo unspecified) | inconclusive: 39.8 µM [activator, single point] | –
O=C(NCC1CC1)c1onc(CSc2ccncc2)c1C(=O)NCC1CC1 | inconclusive: 17.8 µM [activator, partial curve, poor fit] | –
N#Cc1cccc(-c2csc(C(O)c3ccco3)n2)c1 (stereo unspecified) | – | inconclusive: 34.2% [activator]
COc1cccc(-c2ncc3ccccc3c2COC(=O)c2ccc(F)cc2)c1 | inactive | –
O=C(CSc1nccn(-c2ccc(Br)cc2)c1=O)Nc1ccccc1F | inconclusive: 14.1 µM [activator, partial curve, poor fit] | –
COc1ccc(Cl)cc1S(=O)(=O)N1CCN=C1C | inconclusive: 56.2 µM [activator, partial curve, poor fit] | –
C/C(Cc1ccccc1)=N\NC(=O)CNC(=O)c1ccccc1Br | – | inconclusive: 37.5% [activator]
CCc1nc(Nc2ccc(O)cc2)c2oc3ccccc3c2n1 | inactive | –
Cc1cccc(N2CCN(C(=O)C3CCN(Cc4nc(-c5ccc(Cl)cc5)oc4C)CC3)CC2)c1C | inactive | –
COc1cc(C2=NOC(C(=O)N3CCN(c4ccc(F)cc4)CC3)C2)cc(OC)c1OC (stereo unspecified) | inconclusive: 35.5 µM [activator, single point] | –
O=C(NCc1cccnc1)C(=O)C1C(=O)Nc2ccccc21 (stereo unspecified) | – | inconclusive: 6.69% [activator]
O=C(Cc1cccs1)Nc1ccc(S(=O)(=O)N2CCCCC2)cc1 | inactive | –
COc1cc(/C=C2/S/C(=N/S(=O)(=O)Cc3ccccc3)NC2=O)c([N+](=O)[O-])cc1OC | inconclusive: 15.8 µM [activator, partial curve, poor fit] | –
S=c1[nH]nc(-c2ccccc2)n1CC1CCCO1 (stereo unspecified) | – | inconclusive: 34.6% [activator]
COc1cccc2cc(C(=O)Nc3ccc(F)cc3)c(=Nc3ccc(C(=O)O)cc3)oc12 | inactive | –
CN1CCN(c2ccc(S(=O)(=O)N3CCCCC3)cc2NC(=O)CCc2ccccc2)CC1 | inconclusive: 63.1 µM [activator, single point] | –
O=C(CCC1N=C2c3ccccc3N=C(SCc3cccc(F)c3)N2C1=O)NC1CCCCC1 (stereo unspecified) | inconclusive: 56.2 µM [activator, partial curve, poor fit] | –
O=C(O)CCn1cc(-c2ccc(F)cc2)nc1-c1ccncc1 | inconclusive: 70.8 µM [activator, partial curve, poor fit] | –
NS(=O)(=O)c1ccc2nc(NC(=O)CS(=O)(=O)c3ccc(F)cc3)sc2c1 | inconclusive: 39.8 µM [activator, partial curve, poor fit] | –
Cc1ccc(S(=O)(=O)N2CC=C(C(=O)NCCC(C)C)CC2)cc1 | inconclusive: 126 µM [activator, single point] | –

Four entries out of the list, sorted by length of the SMILES, smallest number first.
SMILES | Potency | activation
COc1ccc(Cl)cc1S(=O)(=O)N1CCN=C1C | inconclusive: 56.2 µM [activator, partial curve, poor fit] | –
COc1cccc(N2CC(NC(=O)C3CCCCC3)CC2=O)c1 (stereo unspecified) | inactive | –
NS(=O)(=O)c1ccc2nc(NC(=O)CS(=O)(=O)c3ccc(F)cc3)sc2c1 | inconclusive: 39.8 µM [activator, partial curve, poor fit] | –
COc1cccc2cc(C(=O)Nc3ccc(F)cc3)c(=Nc3ccc(C(=O)O)cc3)oc12 | inactive | –
